# Laboratory results reported in PubChem BioAssay AID1508600 (Functional Genomics Laboratory (NCATS/FGL), 2020).
# Hit rate of the full screen: of about 53,000 sequences, about 3,700 (7%) were called active.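 How the source made its calls: active means gene knockdowns whose robust z-score for IL-1 alpha signal is at least 2 or at most -2, so actives lie on both sides; inactive means the rest.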 This is one part of the list.
# Assay: Components of the Cytosolic LPS Sensing Pathway: Gene Identification via Genome-wide siRNA Screen;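 further: robust z of the log signal after scaling to non-targeting control siRNA wells of the plate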
# Conditions: RAW264.7 macrophages, IL-1a HTRF, actives lie on both sides, screened at 100 nM (by protocol), cells primed 5 h with Pam3CSK4 first
# How it was run: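 Supernatant IL-1a by HTRF from RAW264.7 cells primed with Pam3CSK4 (5 hours) and transfected with LipidA (24 hour) after 48h siRNA knockdown at 100 nM; cell viability checked with CellTiter-Glo.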
row,Sequence,z-score
1,CCAAAACCUAACUUGAAGATT against Rad51ap1,inactive: 0.0668
2,GCUACGCUAUCCAAAUUCUTT against Minar1,inactive: 0.0603
3,GCCAGUCAUGUCCAAAGUATT against Hdac1,inactive: -0.282
4,GGGACUGUUUCAGCUAUACTT against H6pd,inactive: -1.59
5,GGAUACCAUUGUGGUCGCATT against Hck,inactive: -0.406
6,GCUACAGCACAUGGGAUUCTT against Rhbdd3,inactive: -0.0382
7,GAAUUGUCUUACUUGGAAATT against Gimap4,active: 2.05
8,GGAGGAUGGUUUCAAUUCUTT against Pdha2,inactive: 1.2
9,GGUACCAGACCUCAUAGUUTT against Cep95,active: 2.16
10,GGAUAUAAAUGACAACUCGTT against Pcdhb5,inactive: -0.256
11,GGGUAUAAGAGACAAGUAUTT against Cplx1,inactive: -1.8
12,GGAAGAGCAGGAGGAAACATT against Mea1,active: -2.01
13,GGUGUACAACGUAUUCAUATT against Suv39h1,inactive: 0.728
14,GCCUUAACUAUGUUGUCUATT against Mgst1,inactive: 0.893
15,GGCAUCCACCCUAAGGUCATT against Keap1,inactive: 1.03
16,GGAUGCUACAAAUUCACCUTT against Tma16,inactive: -1.04
17,GCCUGUCCUGUGAUGACAUTT against Olfr406,inactive: -1.96
18,GGAACUAAAAGGACCCAAUTT against Tut1,inactive: 0.215
19,GGUUUUCUCGCUCAGACCATT against Wt1,inactive: 0.352
20,GCUGGAAGAAAACUUCUAUTT against Jade2,active: 2.49
21,GGUUCUCAAGGAAUUGCCCTT against R3hdm1,inactive: -0.801
22,GCUAGGACUCAUAAUUUCCTT against Abcc4,inactive: -0.16

row,Sequence,z-score
1,GGAGGAAGAAUUUAUUGCATT against Ly6i,inactive: 0.775
2,GGGAUUCCAAAAGAAGAAGTT against Acat1,inactive: -0.336
3,GGCUUACAGUUCCAUAUGGTT against Olfr401,inactive: -1.11
4,GCACCAAGUAUAGGAUUAATT against Arhgap32,inactive: 0.809
5,GCUUGUUCUCCGAAAAUGGTT against Cdc123,inactive: 0.252
6,GGUCAUGAUACAUGAUCCATT against Htr7,inactive: -1.35
7,GGCAUUAACCUGAGAUGAUTT against Sprr2i,inactive: -1.42
8,CCAAGUCUAAAGGGAAUGGTT against S100a9,inactive: 0.112
9,CCCAUAAGGGUGAAAUUCGTT against Tax1bp1,inactive: 0.444
10,GUGUUCAGGAAGCUGGCAGTT against Klra19,inactive: 1.98
11,GGCUGAAAGAUUGUAUUGATT against Rwdd2b,inactive: -0.601
12,GGCAGACUUUUGACAACUATT against Kcnh5,inactive: 0.933
13,CCAUAUGAGAAGAUGACACTT against Pdcl2,inactive: -1.39
14,GGAUGGAUUCCCAGGAACATT against Crybb1,inactive: -0.332
15,GGUAUGGAUGAAGAACUAGTT against Pdhb,inactive: 1.62
16,GGUUCCUCAUUUGUAGAUGTT against D830050J10Rik,inactive: -1.19
17,GGAAAAUAAGCUGAAAUUCTT against Pygl,inactive: 0.906
18,GGUAGAGCAAUUUCUAACCTT against Hpdl,inactive: 0.793
19,GCUAUUAUUGGGCUUUACCTT against Olfr341,inactive: 0.512
20,CCAUUAUUGGCCCAUGCUCTT against Babam1,active: -2.75
21,GGCACCAUGAACAAGUUACTT against Numbl,inactive: 0.976
22,UGAGUUGUUUCCAGCUAAATT against Uts2b,inactive: -0.506

# As entered above:
# z-score with GGUACCAGACCUCAUAGUUTT against Cep95 reads active: 2.16
# z-score with GCCAGUCAUGUCCAAAGUATT against Hdac1 reads inactive: -0.282
# z-score with GCUAUUAUUGGGCUUUACCTT against Olfr341 reads inactive: 0.512
# z-score with GGCAUCCACCCUAAGGUCATT against Keap1 reads inactive: 1.03
# z-score with GGUUCCUCAUUUGUAGAUGTT against D830050J10Rik reads inactive: -1.19

# Remaining list, next part.

row,Sequence,z-score
1,GCUCUUGUUAUACUUAACATT against Hr,inactive: 1.6
2,GGGAUCAGAGAUUUAGCUATT against Vmn1r201,inactive: -1.29
3,GGUAUCAGAGAGCACUUCATT against Surf2,inactive: -0.548
4,GGGUGCUGUGCACUAUUUCTT against Pcnx3,inactive: 0.0153
5,CCUGCUGCAUUAUGGUUGATT against Grn,inactive: 0.11
6,GCUAAGCAUGAAAUUACCCTT against Pipox,inactive: 0.6
7,GCUCGUGGCAUGUCUCUAUTT against Doc2g,inactive: 0.379
8,CGAAAUGUUUGGUCAGAUCTT against Masp1,inactive: 1.68
9,CCGUGGAUACUGCAUGUGATT against Dpf1,inactive: 0.98
10,GGGAUACUUGGUGAAUUGGTT against Actr6,inactive: -0.485
11,CCCUAUCGUGAUUUAUUGGTT against C130073F10Rik,inactive: -1.33
12,GGAGCUGAUCCUGAAUCACTT against Tpbg,inactive: 0.383
13,GGAGGUACUUCCGAUUGAGTT against Bpifa3,inactive: 0.125
14,GGCCUGAUCAAGUUUCUGCTT against Psd,inactive: 0.461
15,GGCAUAUAAGGACUUCUACTT against C5ar1,inactive: -0.0324
16,CCAAUGGCGAGACAACUACTT against Aldoa,inactive: 0.182
17,CCAGGUGGGAUAAAUUGAATT against Rpusd4,inactive: -1.46
18,GGAAGUGGAAUAUGUCACCTT against Cd300lf,inactive: -0.206
19,CCAAUUGUACCUUAUCUGGTT against Tnfrsf4,inactive: 0.066
20,CGGACUUUCCCGGUAACUATT against Polr1c,inactive: -1.32
21,GGAAAUCAGAGAGAGGUAUTT against Kank1,inactive: 0.132
22,GCAGGAUUUUCACCAACAGTT against Gh,inactive: -0.215

row,Sequence,z-score
1,GGAAUGCUUACACACCUCATT against Galns,inactive: 0.742
2,CGGAACAAUUCCAAGAAACTT against Isl2,inactive: 0.716
3,GGAUCACAGUCUCUUCGGUTT against Fgf20,inactive: 0.473
4,GGAGAAGUACGUUUAAAUGTT against G3bp2,inactive: -0.736
5,GCCACAGUGACUAUACUAGTT against Cdh16,inactive: 1.02
6,CCCACAUGUCCCGUCUUAUTT against 4930429B21Rik,inactive: 0.276
7,GCAUCCUAUAAUAUGCAUGTT against Cdhr1,inactive: 0.789
8,GCUAGGAUAACCCAGAUUATT against Dph2,inactive: -0.931
9,GGAACUGGCCAAUUACUACTT against Rdm1,inactive: -1.29
10,GCUGAGAGUUAAUUGAGCATT against Abcg8,inactive: 0.0952
11,GCCAUAUACAGGUUCAAAGTT against Msh6,inactive: 0.89
12,GGAUGUUACGAAGAAGAUUTT against Ash1l,inactive: -0.664
13,CGAAGAUUACCUUUCAAGATT against St6galnac3,inactive: 0.371
14,GGAUGAACCAAACCAAUAATT against Mgat4d,active: 2.24
15,GGGAGAAAAAAUCCACGAGTT against Tubg1,inactive: -0.0892
16,GGACUCCUUAGAGAAACUUTT against Prl2b1,inactive: -0.0889
17,GGUCGAGCCAAGAAUUUGUTT against Pigo,inactive: 1.52
18,GGCAUAUACAAGGUAUUCUTT against Olfr393,inactive: -0.22
19,GUUUGAGUCUGGAGACGUGTT against Commd4,inactive: 0.917
20,GGAUAACUCAUUCAGAAUGTT against Capn7,inactive: 0.476
21,CGGCAACUCAACAAGCUUATT against Cbfa2t3,active: 2.38
22,GGAGCUAGUAUUGAGCAACTT against Rnh1,inactive: 1.48

# An excerpt of these results, with bars between the fields:
row | Sequence | z-score
2 | CGGAACAAUUCCAAGAAACTT against Isl2 | inactive: 0.716
15 | GGGAGAAAAAAUCCACGAGTT against Tubg1 | inactive: -0.0892
17 | GGUCGAGCCAAGAAUUUGUTT against Pigo | inactive: 1.52

# The listing continues:

row,Sequence,z-score
1,GGCAUAUCAACUUUCUCGATT against Oca2,inactive: -0.373
2,GCACCCAUAAGUUCUUAUATT against Hif1an,inactive: 0.258
3,CCUGAUGCGUUACAACAACTT against Tmem222,inactive: -0.74
4,CCUUCAUUGGUUAGCAUGUTT against Rbl2,inactive: -0.424
5,GGACAAUAUAGGAUCAACATT against Kmo,inactive: -0.155
6,GCUCUCGUCACUGUGUUACTT against Paip2,inactive: 0.906
7,GGUGAAGUCUUACCUAUACTT against Aacs,inactive: -0.598
8,GGAUCUUGUGUUGUAUAAATT against Etv3,inactive: 0.303
9,CCUAUGGCCGACGAUCAUGTT against Cyp2c23,inactive: 1.15
10,GCUGGAAUAUAGGAAUGUCTT against Pex11g,inactive: -0.0512
11,CCGAUCAAUGGAUUGUUUUTT against Mettl9,inactive: 0.644
12,CCUGUGUUCUGACCUAGAGTT against Hes6,inactive: -1.88
13,GGAAAAGCUACAUUACUUCTT against Trim31,inactive: 0.785
14,GGCUCUAAAGAGACACCUUTT against Olfr498,inactive: 0.0154
15,CGGCUACCAAUCCAAGACATT against Marchf6,inactive: 0.4
16,GGGACGGAGAAAAGCUUUUTT against Olfr419,active: 3.92
17,GCCGACCACAGUACAAGACTT against Bivm,inactive: 1.08
18,GGCUCUAAUGUAAUGAAUCTT against Fgf10,inactive: 0.259
19,CCUCAUUCUGUAAAAGAGATT against Hpcal4,inactive: 0.33
20,GGCAGUGAGUGAGUCACAGTT against Ankfn1,inactive: -1.69
